This assay has as its target T1, endogenous PEPD of UM-UC-3 cells, HCT116 cells and HCT116 sublines (human (endogenous in UM-UC-3 and HCT116)) (UniProt P12955).
T1 sequence: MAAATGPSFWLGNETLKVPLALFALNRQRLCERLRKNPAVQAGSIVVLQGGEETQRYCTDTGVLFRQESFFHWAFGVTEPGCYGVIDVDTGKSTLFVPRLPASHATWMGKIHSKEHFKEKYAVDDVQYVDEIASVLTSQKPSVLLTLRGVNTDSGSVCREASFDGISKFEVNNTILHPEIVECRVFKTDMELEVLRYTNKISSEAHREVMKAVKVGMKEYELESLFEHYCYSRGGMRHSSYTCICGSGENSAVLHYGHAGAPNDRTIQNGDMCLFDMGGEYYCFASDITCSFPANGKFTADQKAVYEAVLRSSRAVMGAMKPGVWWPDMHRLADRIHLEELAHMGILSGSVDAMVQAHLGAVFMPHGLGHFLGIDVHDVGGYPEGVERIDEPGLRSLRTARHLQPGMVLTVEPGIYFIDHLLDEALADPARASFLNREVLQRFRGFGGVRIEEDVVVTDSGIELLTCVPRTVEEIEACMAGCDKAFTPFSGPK
As to the kind of experiment: co-IP; mitochondria-free lysates of UM-UC-3 cells treated with control or PEPD siRNA for 48 h; IP-IB.

Chains of the proteins cited; added tags and fusions are not shown.
UniProt Q00987: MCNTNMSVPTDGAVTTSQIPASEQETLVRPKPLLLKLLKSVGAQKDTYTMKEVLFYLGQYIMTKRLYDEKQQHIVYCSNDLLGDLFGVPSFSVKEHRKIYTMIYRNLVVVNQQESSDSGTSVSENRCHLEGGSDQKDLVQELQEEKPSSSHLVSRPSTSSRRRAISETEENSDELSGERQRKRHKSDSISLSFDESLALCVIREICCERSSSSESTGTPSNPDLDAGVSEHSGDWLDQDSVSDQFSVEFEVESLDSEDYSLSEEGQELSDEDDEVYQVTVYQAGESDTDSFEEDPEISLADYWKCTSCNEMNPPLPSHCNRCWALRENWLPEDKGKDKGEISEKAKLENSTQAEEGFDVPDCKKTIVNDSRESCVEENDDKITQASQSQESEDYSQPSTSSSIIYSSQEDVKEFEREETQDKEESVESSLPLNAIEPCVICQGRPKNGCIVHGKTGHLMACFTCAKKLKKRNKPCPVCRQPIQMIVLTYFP

These are yes or no findings as the source states them, for the method shown. Binding seen in cells or lysates may run through a third protein.

1 substance from paper PMC5727116 can be followed below.

For the substance “MDM2, endogenous (from UniProt Q00987 1-491) (enzyme)”, the binding entry is “no binding”.
